Assay results published in paper PMC10196724.
These are yes or no findings as the source states them, for the method shown. In cells and extracts the contact can be indirect. Here binding means that the protein was enriched with, or labelled near, the bait; the list need not be complete. For part of these data: A no says only that the protein was not detected with the bait. Blank lines part the entries; values can stand above or below the molecule they belong to.

Amino acid sequences for entries named in this document (tags omitted).
UniProt P49840: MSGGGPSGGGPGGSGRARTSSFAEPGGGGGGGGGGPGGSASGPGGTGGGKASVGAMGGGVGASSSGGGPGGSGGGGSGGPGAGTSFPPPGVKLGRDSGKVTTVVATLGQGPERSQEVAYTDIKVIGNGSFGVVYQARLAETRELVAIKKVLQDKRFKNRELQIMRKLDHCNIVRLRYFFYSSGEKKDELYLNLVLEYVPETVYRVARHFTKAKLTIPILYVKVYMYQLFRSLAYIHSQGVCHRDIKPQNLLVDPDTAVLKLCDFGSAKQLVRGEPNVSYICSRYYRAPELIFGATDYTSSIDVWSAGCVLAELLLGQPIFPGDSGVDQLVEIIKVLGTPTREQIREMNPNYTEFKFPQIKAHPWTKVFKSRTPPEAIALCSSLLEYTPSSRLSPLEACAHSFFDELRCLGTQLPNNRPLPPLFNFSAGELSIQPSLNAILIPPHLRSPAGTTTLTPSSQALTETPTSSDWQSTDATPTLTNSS
UniProt P49841: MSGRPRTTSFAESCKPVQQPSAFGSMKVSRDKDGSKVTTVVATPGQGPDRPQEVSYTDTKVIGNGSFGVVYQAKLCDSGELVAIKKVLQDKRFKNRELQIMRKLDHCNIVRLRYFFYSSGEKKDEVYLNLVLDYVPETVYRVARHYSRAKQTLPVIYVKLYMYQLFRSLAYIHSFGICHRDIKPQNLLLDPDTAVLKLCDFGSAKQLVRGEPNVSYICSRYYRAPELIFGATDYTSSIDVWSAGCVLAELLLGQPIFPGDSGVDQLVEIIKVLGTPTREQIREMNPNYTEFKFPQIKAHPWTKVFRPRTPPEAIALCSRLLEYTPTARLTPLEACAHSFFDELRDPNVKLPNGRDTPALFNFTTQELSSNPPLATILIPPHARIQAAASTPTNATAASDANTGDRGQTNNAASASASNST
UniProt Q9NYF8: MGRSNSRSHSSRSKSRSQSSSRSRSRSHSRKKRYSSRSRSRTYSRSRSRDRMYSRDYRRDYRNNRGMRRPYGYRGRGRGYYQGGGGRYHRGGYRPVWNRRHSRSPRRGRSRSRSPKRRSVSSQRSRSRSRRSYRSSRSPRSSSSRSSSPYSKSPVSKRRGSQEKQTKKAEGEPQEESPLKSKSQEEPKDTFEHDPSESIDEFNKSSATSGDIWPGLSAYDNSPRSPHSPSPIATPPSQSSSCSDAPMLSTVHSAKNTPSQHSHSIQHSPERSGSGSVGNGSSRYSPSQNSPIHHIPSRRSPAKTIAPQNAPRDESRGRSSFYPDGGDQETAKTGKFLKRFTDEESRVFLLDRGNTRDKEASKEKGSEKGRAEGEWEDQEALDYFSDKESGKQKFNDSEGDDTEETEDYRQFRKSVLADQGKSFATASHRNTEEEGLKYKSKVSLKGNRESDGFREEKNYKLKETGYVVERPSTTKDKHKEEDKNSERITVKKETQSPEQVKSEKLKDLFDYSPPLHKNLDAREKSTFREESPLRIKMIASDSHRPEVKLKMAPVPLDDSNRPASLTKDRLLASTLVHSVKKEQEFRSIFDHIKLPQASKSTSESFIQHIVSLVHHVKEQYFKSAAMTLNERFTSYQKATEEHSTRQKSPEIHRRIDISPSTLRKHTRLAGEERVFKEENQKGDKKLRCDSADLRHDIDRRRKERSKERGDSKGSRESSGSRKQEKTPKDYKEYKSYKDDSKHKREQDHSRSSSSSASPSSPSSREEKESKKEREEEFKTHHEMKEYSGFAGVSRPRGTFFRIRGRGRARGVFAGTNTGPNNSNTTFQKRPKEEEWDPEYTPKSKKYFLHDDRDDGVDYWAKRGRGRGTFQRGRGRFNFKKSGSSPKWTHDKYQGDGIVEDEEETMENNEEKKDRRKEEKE
UniProt O95793: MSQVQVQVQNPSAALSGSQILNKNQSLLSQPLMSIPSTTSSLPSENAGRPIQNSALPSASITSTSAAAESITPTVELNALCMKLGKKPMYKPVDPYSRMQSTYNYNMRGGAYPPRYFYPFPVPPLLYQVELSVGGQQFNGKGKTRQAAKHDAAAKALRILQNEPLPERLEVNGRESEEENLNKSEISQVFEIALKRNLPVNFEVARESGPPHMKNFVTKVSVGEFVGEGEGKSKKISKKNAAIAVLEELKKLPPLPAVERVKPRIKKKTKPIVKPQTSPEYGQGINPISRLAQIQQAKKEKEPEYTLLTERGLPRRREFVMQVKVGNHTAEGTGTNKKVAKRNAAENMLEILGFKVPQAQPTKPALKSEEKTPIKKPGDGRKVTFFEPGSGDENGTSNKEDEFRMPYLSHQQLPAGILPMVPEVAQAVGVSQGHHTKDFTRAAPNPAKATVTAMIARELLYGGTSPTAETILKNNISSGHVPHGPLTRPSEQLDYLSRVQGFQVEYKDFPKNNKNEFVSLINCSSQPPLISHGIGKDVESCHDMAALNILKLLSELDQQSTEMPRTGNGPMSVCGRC

Tests used:
[1] = molecular target: GSK3α-Flag (human) (UniProt P49840); assay: affinity purification with mass spectrometry; GSK3A-Flag or GSK3B-Flag overexpressed in 293T; lysis in 25 mM Tris-HCl, 150 mM NaCl, 1% NP-40, 5% glycerol, pH 7.4; pulled down with anti-Flag magnetic beads; label-free LC-MS/MS, 3 replicates; binding proteins: ratio to control >1.5, p < 0.05, or only identified in the overexpression group
[2] = molecular target: GSK3β-Flag (human) (UniProt P49841); assay: as above

binding [1]: binds | binding [2]: no binding
Molecule: BCLAF1 (from UniProt Q9NYF8 1-920)

binding [1]: binds | binding [2]: no binding
Molecule: STAU1 (from UniProt O95793 1-577)

binding [1]: binds | binding [2]: no binding
B1: THRAP3 (protein, UniProt Q9Y2W1 1-955)
chain: MSKTNKSKSGSRSSRSRSASRSRSRSFSKSRSRSRSLSRSRKRRLSSRSRSRSYSPAHNRERNHPRVYQNRDFRGHNRGYRRPYYFRGRNRGFYPWGQYNRGGYGNYRSNWQNYRQAYSPRRGRSRSRSPKRRSPSPRSRSHSRNSDKSSSDRSRRSSSSRSSSNHSRVESSKRKSAKEKKSSSKDSRPSQAAGDNQGDEAKEQTFSGGTSQDTKASESSKPWPDATYGTGSASRASAVSELSPRERSPALKSPLQSVVVRRRSPRPSPVPKPSPPLSSTSQMGSTLPSGAGYQSGTHQGQFDHGSGSLSPSKKSPVGKSPPSTGSTYGSSQKEESAASGGAAYTKRYLEEQKTENGKDKEQKQTNTDKEKIKEKGSFSDTGLGDGKMKSDSFAPKTDSEKPFRGSQSPKRYKLRDDFEKKMADFHKEEMDDQDKDKAKGRKESEFDDEPKFMSKVIGANKNQEEEKSGKWEGLVYAPPGKEKQRKTEELEEESFPERSKKEDRGKRSEGGHRGFVPEKNFRVTAYKAVQEKSSSPPPRKTSESRDKLGAKGDFPTGKSSFSITREAQVNVRMDSFDEDLARPSGLLAQERKLCRDLVHSNKKEQEFRSIFQHIQSAQSQRSPSELFAQHIVTIVHHVKEHHFGSSGMTLHERFTKYLKRGTEQEAAKNKKSPEIHRRIDISPSTFRKHGLAHDEMKSPREPGYKAEGKYKDDPVDLRLDIERRKKHKERDLKRGKSRESVDSRDSSHSRERSAEKTEKTHKGSKKQKKHRRARDRSRSSSSSSQSSHSYKAEEYTEETEEREESTTGFDKSRLGTKDFVGPSERGGGRARGTFQFRARGRGWGRGNYSGNNNNNSNNDFQKRNREEEWDPEYTPKSKKYYLHDDREGEGSDKWVSRGRGRGAFPRGRGRFMFRKSSTSPKWAHDKFSGEEGEIEDDESGTENREEKDNIQPTTE
